Source: publication PMC4234509

Molecular target: T1, GST-EvpC (Edwardsiella tarda) (UniProt Q6EE19)
T1 sequence: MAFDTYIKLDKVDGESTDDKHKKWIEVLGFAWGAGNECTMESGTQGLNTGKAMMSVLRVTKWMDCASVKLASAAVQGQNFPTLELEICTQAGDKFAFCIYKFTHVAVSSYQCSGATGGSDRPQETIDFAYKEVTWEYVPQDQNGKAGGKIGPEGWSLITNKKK
Assay: pull-down; GST-EvpC (100 µg) on glutathione-sepharose 4B beads, EvpP or truncation mutant (200 µg) added, 1x PBS, 4°C, at least 2 h, SDS-PAGE; both purified

Q: With “EvpP(1-168), C-terminal truncation mutant of EvpP (Edwardsiella tarda PPD130/91) (domain or fragment)” as the substance, how does the binding read?
A: Its binding is “binds”.

These are yes or no findings as the source states them, for the method shown. Binding can be weak; no strength is given. Tags and fused reporters may be left off the sequences shown.
